Earlier results, collected in patent publication US5506359A, “Cocaine analogues and their use as cocaine drug therapies and therapeutic and imaging agents for neurodegenerative disorders” (priority 1993, dated 1996).
At least one read-out could not be matched to a standard name with certainty. Some compounds share one range, which may span the group rather than tell each member.

Tested on: [^3 H]CFT binding sites in monkey caudate-putamen
Details: cited from earlier work

Structure (SMILES)	plateau of competition curve (displacement of [^3 H]CFT)
Fc1ccc(C(OCCN2CCN(CCCc3ccccc3)CC2)c2ccc(F)cc2)cc1 [GBR 12909]	90-93%
CNC1CC(c2ccc(Cl)c(Cl)c2)c2ccccc21 (stereo not drawn) [Lu 19-005]	90-93%
CC(NC(C)(C)C)C(=O)c1cccc(Cl)c1 (stereo not drawn) [bupropion]	90-93%
